Peptide text beside a SMILES is read from it.
Test: Peptide: Dacron binding assay (unbound fraction by HPLC)
[1] = graft soaked in 50 micrograms/mL peptide solution

| Molecule | Fraction of 50 micrograms peptide bound to Dacron graft (after 5 hours soaking (data not shown)) [%] | Dacron binding relative to RIP [1] | Mean bound amount of peptide on Dacron graft [1] | Peptide bound to the graft prior to implantation (graft soaked in 50 micrograms/mL) [micrograms] |
| --- | --- | --- | --- | --- |
| CC(C)C[C@H](NC(=O)[C@H](C)N)C(=O)N[C@@H](Cc1c[nH]c2ccccc12)C(=O)N[C@@H](CCCCN)C(=O)N[C@H](C(=O)N[C@@H](CC(C)C)C(=O)N[C@@H](CC(C)C)C(=O)N[C@@H](CCCCN)C(=O)N[C@@H](CCCCN)C(=O)N[C@H](C(=O)N[C@@H](CC(C)C)C(=O)N[C@@H](CCCCN)C(=O)N[C@@H](C)C(N)=O)C(C)C)[C@@H](C)O [DD13] (H-ALWKTLLKKVLKA-NH2; N-terminus assumed) | ~100 | about 3 fold | 27±0.5 micrograms peptide per square centimeter | – |
| YSPWTNF (C-terminal amide) [RIP, reference compound] | – | – | 6.5±2.5 micrograms peptide per square centimeter | 6.5±2.5 |
